Test results taken from PubChem BioAssay AID540276 (National Center for Advancing Translational Sciences (NCATS), 2011).
Where “and” joins values, the source holds several entries; their conditions need not be identical. Equal values may be shown once. In all, about 300,000 compounds went through this assay and about 5,400 (1.8%) were called active. This list was built around the results that the source calls inconclusive (neither active nor inactive); the mix of calls is not that of the screen. The call rests on the fitted dose curve; tested in HEK293 cells. Potencies of inconclusive entries are doubtful fits and often do not repeat.

Experiment: qHTS for inhibitors of binding or entry into cells for Marburg Virus
Conditions: Marburg virus pseudotyped entry inhibition, cell reporter; activity change, negative = inhibition: at 37.8 µM (top of the series) unless noted
On the % scale 0 is the no-effect control and ±100 the full control effect; potency means the concentration at half of the fitted maximal effect.

Q: Which “activity change, negative = inhibition” value does the source give for O=C(Cn1ncn2cccc2c1=O)NCc1cccc(Br)c1 here?
A: The value was inactive: 2.93% [at 46.1 µM].

Q: For CCSc1nnc(NC(=O)c2ccccc2)s1, which Potency is on record?
A: Its Potency is “inactive and inconclusive: 398 nM [activator, partial curve, poor fit]”.

Q: With N=C(N)c1ccc(OCCCCCOc2ccc(C(=N)N)cc2)cc1 (tested in a mixture with another compound) as the compound, how does the Potency read?
A: The Potency was inconclusive: 23.1 µM [inhibitor, single point] and inconclusive: 2.51 µM [inhibitor, full curve] and inconclusive: 29.1 µM [inhibitor, single point].

Q: For CN(C)C(CNC(=O)c1cccc(S(=O)(=O)N2CC3(C)CC2CC(C)(C)C3)c1)c1ccco1 (stereo not drawn), which Potency is on record?
A: Its Potency is inconclusive: 16.4 µM [inhibitor, single point].

Q: For COC(=O)c1c(C(=O)OC)c2ccncn2c1Cl, which Potency is on record?
A: Its Potency is inconclusive: 14.1 µM [inhibitor, partial curve, poor fit].

Q: With CCOC(=O)/C(=C\c1ccc(N2CCC(c3ccccc3)=N2)cc1)C(C)=O as the compound, how does the Potency read?
A: The Potency was active: 2.82 µM.

Q: With Nc1nc(SCc2ccccc2)ns1 as the compound, how does the Potency read?
A: The Potency was inconclusive: 5.01 µM [activator, full curve, poor fit].

Q: With Cc1cc(C)nc(CCNC(=O)c2cc(COc3ccc(F)cc3Cl)on2)n1 as the compound, how does the “activity change, negative = inhibition” value read?
A: The value was inactive: -10.8% [at 46.1 µM].

Q: For COc1cc(NC(=O)c2ccccc2F)ccc1NC(=O)c1cc2ccccc2o1, which Potency is on record?
A: The Potency was inconclusive: 5.62 µM [inhibitor, single point].

Q: Which Potency does the source give for CCCCc1nnc(NC(=O)c2ccc(OCc3c(C)noc3C)cc2)s1 here?
A: Its Potency is inconclusive: 11.2 µM [inhibitor, single point].

Q: With O=C(CCNC(=O)c1ccc(Cl)cc1)Nc1c(F)c(F)cc(F)c1F as the compound, how does the “activity change, negative = inhibition” value read?
A: The value was inactive: 5%.

Q: For CCN(CC)S(=O)(=O)c1ccc(Cl)c(NC(=O)c2ccc(C#N)cc2)c1, which Potency is on record?
A: Its Potency is inconclusive: 17.8 µM [inhibitor, single point].

Q: For CC1=C(C(=O)Nc2ccccc2)C(C(C)C)n2nc(SCc3ccccc3C)nc2N1 (stereo not drawn), which “activity change, negative = inhibition” value is on record?
A: The value was inactive: 0.295% [at 46.1 µM].

Q: For CCOC(=O)c1ccc(COC(=O)c2cc3ccccc3oc2=O)o1, which “activity change, negative = inhibition” value is on record?
A: Its value is inactive: 12.1%.

Q: With O=C(O)c1cc(S(=O)(=O)N2CCN(C(=O)c3ccco3)CC2)c(Cl)cc1Cl as the compound, how does the “activity change, negative = inhibition” value read?
A: Its value is inactive: 2.94% [at 46.1 µM].

Q: Which Potency does the source give for COC(=O)c1ccccc1NC(=O)Cn1nnc(-c2ccc(OC)cc2)n1 here?
A: Its Potency is inconclusive: 18.3 µM [inhibitor, partial curve, poor fit].

Q: For O=C(Nc1nc2ccc(F)cc2s1)c1cccc(S(=O)(=O)N2CCc3ccccc32)c1, which Potency is on record?
A: Its Potency is inconclusive: 35.5 µM [inhibitor, single point].

Q: For CCc1nc2ccccc2c(C(=O)OCC(=O)N(CCOC)c2c(N)n(Cc3ccccc3)c(=O)[nH]c2=O)c1C, which Potency is on record?
A: The Potency was inconclusive: 1.41 µM [inhibitor, partial curve].
